Experimental data: PubChem BioAssay AID504764 (Drosophila RNAi Screening Center, 2011)
The screen tested about 22,000 reagents; shown is a random part of those that have a named target and a result. Over the whole deposit, 403 (1.9%) are marked active. 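Unnormalised raw counts per well; ratio z-scores behind the hit calls and whether each hit raises or lowers signal are not deposited.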 Names joined by + are all predicted targets of the reagent. Reagent sequences are not shown. Not stated in the record: the amount of reagent.

- Assay: 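Genome-wide screen for regulators of Notch-driven gene expression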 (primary screen)
- Cells: Drosophila Kc167 cells
- Reagent: long dsRNA against Drosophila genes
- Timing: about 5 days (4 days dsRNA, then 24 h after transfection)
- Treatment: transfection of constitutively active membrane-tethered Notch lacking the extracellular domain, read 24 h later
- Detection: 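Firefly luciferase from an E(spl)m3 reporter with active Notch, plus control-promoter and uninduced reporter wells for normalisation; unnormalised counts, duplicate wells a and b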
- Direction: induced reporter light, run 1, well a and induced reporter light, run 1, well b: higher = more light from the Notch target reporter with active Notch; control promoter light, run 1, well a and control promoter light, run 1, well b: higher = more light from the viral control promoter (cell number, transfection, viability); uninduced reporter light, run 1, well a: higher = more light from the Notch target reporter without active Notch
- Call rule: 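Hit if the duplicate-averaged log2 ratio of induced to control-promoter light gives a plate-wise z beyond ±2, or induced to uninduced beyond ±1.8; weak-control or discordant-duplicate wells dropped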
- Calls: active = modifier hit (raised or lowered Notch signal); inactive = not a hit

The first 5 records as a preview:
| predicted target | dsRNA | induced reporter light, run 1, well a | induced reporter light, run 1, well b | control promoter light, run 1, well a | control promoter light, run 1, well b | uninduced reporter light, run 1, well a | Call |
| --- | --- | --- | --- | --- | --- | --- | --- |
| Hsp60A | DRSC20254 | 1.46e5 | 1.80e5 | 2.04e5 | 2.49e5 | 11945 | inactive |
| CG31871 | DRSC02567 | 1.71e5 | 1.96e5 | 87870 | 1.36e5 | 19200 | inactive |
| CG31871 | DRSC02571 | 2.27e5 | 2.20e5 | 1.31e5 | 1.63e5 | 26755 | inactive |
| CG34315 + Orc3 | DRSC07642 | 1.58e5 | 1.55e5 | 1.79e5 | 1.67e5 | 13165 | inactive |
| tst + CG10375 | DRSC14237 | 1.67e5 | 2.02e5 | 2.15e5 | 2.53e5 | 14750 | inactive |

The list itself, repeating the preview:
| predicted target | dsRNA | induced reporter light, run 1, well a | induced reporter light, run 1, well b | control promoter light, run 1, well a | control promoter light, run 1, well b | uninduced reporter light, run 1, well a | Call |
| --- | --- | --- | --- | --- | --- | --- | --- |
| Hsp60A | DRSC20254 | 1.46e5 | 1.80e5 | 2.04e5 | 2.49e5 | 11945 | inactive |
| CG31871 | DRSC02567 | 1.71e5 | 1.96e5 | 87870 | 1.36e5 | 19200 | inactive |
| CG31871 | DRSC02571 | 2.27e5 | 2.20e5 | 1.31e5 | 1.63e5 | 26755 | inactive |
| CG34315 + Orc3 | DRSC07642 | 1.58e5 | 1.55e5 | 1.79e5 | 1.67e5 | 13165 | inactive |
| tst + CG10375 | DRSC14237 | 1.67e5 | 2.02e5 | 2.15e5 | 2.53e5 | 14750 | inactive |
| CG31467 | DRSC16048 | 1.02e5 | 81885 | 1.06e5 | 70690 | 7455 | inactive |
| Or22c | DRSC00766 | 1.28e5 | 1.21e5 | 1.20e5 | 68430 | 9065 | inactive |
| Rh7 | DRSC10529 | 1.30e5 | 1.30e5 | 69535 | 35645 | 10940 | inactive |
| CG33642 | DRSC01325 | 1.53e5 | 1.04e5 | 1.63e5 | 1.43e5 | 9935 | inactive |
| AIF | DRSC00696 | 1.40e5 | 2.14e5 | 2.68e5 | 2.78e5 | 17832 | active |
| RpS9 | DRSC11273 | 47895 | 45825 | 43080 | 33430 | 3130 | active |
| hpRNA:CR32205 | DRSC09890 | 1.07e5 | 95635 | 1.04e5 | 85905 | 6320 | inactive |
| CG5455 | DRSC15805 | 1.92e5 | 2.27e5 | 2.17e5 | 2.39e5 | 15950 | inactive |
| CG8001 | DRSC08611 | 89975 | 92845 | 1.64e5 | 1.43e5 | 6860 | inactive |
| Sgs3 | DRSC11280 | 1.72e5 | 1.64e5 | 2.41e5 | 1.86e5 | 10050 | inactive |
| CG7903 | DRSC16338 | 1.24e5 | 1.12e5 | 1.72e5 | 1.50e5 | 9295 | inactive |
| Lipt2 | DRSC12338 | 1.03e5 | 1.69e5 | 81725 | 96255 | 9015 | inactive |
| SIFa | DRSC04480 | 1.49e5 | 1.35e5 | 1.51e5 | 1.63e5 | 10510 | inactive |
| CG11426 | DRSC11658 | 31630 | 30760 | 43285 | 35500 | 2810 | inactive |
| Mdr49 | DRSC07466 | 67535 | 62530 | 54325 | 60250 | 5190 | inactive |
| AcCoAS | DRSC11477 | 1.95e5 | 1.99e5 | 2.72e5 | 2.05e5 | 16900 | inactive |
| AcCoAS | DRSC11603 | 1.37e5 | 1.34e5 | 1.37e5 | 1.60e5 | 10685 | inactive |
| AcCoAS | DRSC22850 | – | – | – | – | – | inactive |
| U3-55K | DRSC05982 | 79670 | 85580 | 87615 | 84225 | 7085 | inactive |
| CG14071 | DRSC02374 | 99935 | 1.56e5 | 59750 | 71510 | 16400 | inactive |
| CG13077 | DRSC02181 | 55680 | 38050 | 43685 | 54555 | 2368 | inactive |
| PolI | DRSC16267 | 59400 | 74290 | 63595 | 45120 | 6230 | inactive |
| CG5245 | DRSC15750 | 93205 | 80705 | 80205 | 56910 | 6690 | inactive |
| CG16852 | DRSC01876 | 1.27e5 | 1.54e5 | 1.44e5 | 1.46e5 | 11180 | inactive |
| Tg | DRSC03047 | 1.38e5 | 1.56e5 | 1.01e5 | 1.10e5 | 22142 | inactive |
| CG17097 | DRSC02569 | 1.73e5 | 1.69e5 | 93250 | 1.18e5 | 19825 | inactive |
| Trm7-34 | DRSC16171 | 1.54e5 | 1.67e5 | 1.75e5 | 2.10e5 | 14190 | inactive |
| Ugt307A1 | DRSC02138 | 1.66e5 | 1.30e5 | 2.11e5 | 2.50e5 | 8475 | active |
| Phs | DRSC10827 | 1.56e5 | 1.25e5 | 1.13e5 | 1.20e5 | 10028 | inactive |
| CG10062 | DRSC05960 | 1.12e5 | 1.09e5 | 1.74e5 | 2.04e5 | 8545 | inactive |
| CG7362 | DRSC16236 | 2.03e5 | 1.92e5 | 1.85e5 | 1.94e5 | 14270 | inactive |
| CG34436 | DRSC15164 | 6810 | 5315 | 10135 | 8660 | 460 | inactive |
| CG1288 | DRSC12538 | 88780 | 93420 | 44730 | 47015 | 7085 | inactive |
| ben | DRSC20310 | 1.27e5 | 1.24e5 | 3.04e5 | 2.96e5 | 6075 | active |
| ben | DRSC21261 | 1.08e5 | 88095 | 1.32e5 | 1.26e5 | 10450 | inactive |
| CG30015 | DRSC05241 | 2.01e5 | 2.06e5 | 3.05e5 | 3.43e5 | 25430 | inactive |
| CG30015 | DRSC07027 | 1.74e5 | 1.51e5 | 1.58e5 | 1.45e5 | 14430 | inactive |
| CG30015 | DRSC07028 | 1.60e5 | 1.48e5 | 2.04e5 | 2.18e5 | 13050 | inactive |
| cerv | DRSC19681 | 59455 | 54770 | 57940 | 64010 | 9060 | inactive |
| Ubc7 | DRSC20299 | 1.22e5 | 96610 | 1.14e5 | 99675 | 11300 | inactive |
| CG14618 | DRSC20631 | 99200 | 1.03e5 | 81960 | 1.11e5 | 9788 | inactive |
| CG5731 | DRSC02883 | 1.33e5 | 1.72e5 | 86850 | 1.23e5 | 17595 | inactive |
| dgrn | DRSC12154 | 1.50e5 | 1.42e5 | 1.61e5 | 1.62e5 | 12300 | inactive |
| Noa36 | DRSC16761 | 1.76e5 | 1.79e5 | 2.11e5 | 2.25e5 | 13620 | inactive |
| klar | DRSC08718 | 95215 | 90110 | 1.74e5 | 2.06e5 | 7190 | inactive |
| Cpr62Bb | DRSC08404 | 1.21e5 | 1.32e5 | 1.50e5 | 1.30e5 | 6160 | inactive |
| Cyp9h1 | DRSC07391 | 91040 | 93350 | 1.11e5 | 97860 | 8125 | inactive |
| CG4021 | DRSC04439 | 27270 | 31440 | 27470 | 26855 | 1490 | inactive |
| CG42537 | DRSC12519 | 81095 | 1.01e5 | 74580 | 73665 | 2312 | inactive |
| verm | DRSC11038 | 1.02e5 | 1.35e5 | 69785 | 81780 | 8615 | inactive |
| CG17030 | DRSC08503 | 2.12e5 | 1.84e5 | 2.64e5 | 2.22e5 | 10465 | inactive |
| TotF | DRSC02305 | 62505 | 49780 | 70855 | 51900 | 3700 | inactive |
| CG31269 | DRSC15744 | 2.50e5 | 2.61e5 | 2.57e5 | 2.80e5 | 19910 | inactive |
| CG13708 | DRSC08317 | 2.08e5 | 2.14e5 | 2.23e5 | 1.92e5 | 9615 | inactive |
| SPR | DRSC17390 | 88250 | 1.05e5 | 76645 | 80895 | 6240 | inactive |
| SPR | DRSC17886 | 1.64e5 | 1.63e5 | 3.35e5 | 3.14e5 | 14045 | inactive |
| SPR | DRSC18114 | 1.67e5 | 1.52e5 | 4.15e5 | 2.85e5 | 12060 | inactive |
| DNAlig1 | DRSC04518 | 1.88e5 | 1.62e5 | 1.45e5 | 1.91e5 | 13205 | inactive |
| Lmpt | DRSC09450 | 1.35e5 | 1.48e5 | 1.94e5 | 1.96e5 | 11040 | inactive |
| Lmpt | DRSC09864 | 1.77e5 | 1.46e5 | 2.11e5 | 1.64e5 | 8095 | inactive |
| Lmpt | DRSC09865 | 1.35e5 | 1.39e5 | 82135 | 1.08e5 | 9820 | inactive |
| Lmpt | DRSC09866 | 1.81e5 | 1.59e5 | 1.81e5 | 1.71e5 | 9835 | inactive |
| Lmpt | DRSC11107 | 1.61e5 | 1.57e5 | 1.85e5 | 1.70e5 | 9150 | inactive |
| Lmpt | DRSC21738 | – | – | – | – | – | inactive |
